From patent US12642271B2, “Active compound combinations comprising a (thio)carboxamide derivative and a fungicidal compound” (Bayer CropScience Aktiengesellschaft, priority 2011, dated 2026)
At least one read-out could not be matched to a standard name with certainty.

Legend:
Type in all cases: in vivo
Leptosphaeria nodorum = Leptosphaeria nodorum test (wheat)/preventive; conditions: application rate 40 ppm, preventive, evaluated 8 days after inoculation
Puccinia triticina = experiment: Puccinia triticina-test (wheat)/preventive; conditions: application rate 40 ppm a.i., preventive, evaluated 8 days after inoculation
Septoria tritici = experiment: Septoria tritici-test (wheat)/preventive; conditions: application rate 10 ppm a.i., preventive, evaluated 21 days after inoculation

SMILES	Efficacy in % found (Puccinia triticina) [%]	further results
CC(C)c1ccc(Cl)cc1CN(C(=O)c1c(C(F)F)nn(C)c1F)C1CC1 [A5, N-(5-chloro-2-isopropylbenzyl)-N-cyclopropyl-3-(difluoromethyl)-5-fluoro-1-methyl-1H-pyrazole-4-carboxamide]	–	Efficacy in % found (Leptosphaeria nodorum): 67%
Cn1nc(C(F)F)c(C(=O)N(Cc2cc(Cl)ccc2C(F)(F)F)C2CC2)c1F [A15, N-[5-chloro-2-(trifluoromethyl)benzyl]-N-cyclopropyl-3-(difluoromethyl)-5-fluoro-1-methyl-1H-pyrazole-4-carboxamide]	78	–
Cn1nc(C(F)F)c(C(=O)N(Cc2c(Cl)cccc2C(F)(F)F)C2CC2)c1F [A17, N-[2-chloro-6-(trifluoromethyl)benzyl]-N-cyclopropyl-3-(difluoromethyl)-5-fluoro-1-methyl-1H-pyrazole-4-carboxamide]	78	–
Cn1nc(C(F)F)c(C(=O)N(Cc2c(C(F)(F)F)ccc(Cl)c2F)C2CC2)c1F [A18, N-[3-chloro-2-fluoro-6-(trifluoromethyl)benzyl]-N-cyclopropyl-3-(difluoromethyl)-5-fluoro-1-methyl-1H-pyrazole-4-carboxamide]	–	Efficacy in % found (Septoria tritici): 80%
